Laboratory results published in PMC11871461.
No constants are given. Whether binding was seen depends on the method and setting. Binding seen in cells or lysates may run through a third protein. Some results given as binding are weak or reduced against the parent protein; the word gives no strength. For some assays here: Tags and fused reporters may be left off the sequences shown.

Sequences of proteins named here, by UniProt entry; tags and fusion partners are left off.
UniProt Q6ZNE5: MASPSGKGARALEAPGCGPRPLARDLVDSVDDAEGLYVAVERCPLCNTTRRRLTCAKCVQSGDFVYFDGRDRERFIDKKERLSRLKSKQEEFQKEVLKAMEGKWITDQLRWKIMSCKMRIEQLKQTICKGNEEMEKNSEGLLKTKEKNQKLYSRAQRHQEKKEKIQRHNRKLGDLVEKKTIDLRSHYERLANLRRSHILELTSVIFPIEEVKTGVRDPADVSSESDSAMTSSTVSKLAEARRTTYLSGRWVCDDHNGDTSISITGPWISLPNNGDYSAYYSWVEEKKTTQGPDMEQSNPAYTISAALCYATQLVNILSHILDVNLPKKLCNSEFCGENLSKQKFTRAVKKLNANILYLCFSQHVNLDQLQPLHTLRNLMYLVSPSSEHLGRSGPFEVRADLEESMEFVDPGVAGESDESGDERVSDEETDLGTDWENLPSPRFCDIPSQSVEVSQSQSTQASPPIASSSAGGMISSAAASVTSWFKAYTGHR

How the values were obtained:
[1] = biological target: T1, HA-tagged USP1 (ubiquitin-specific peptidase 1), WT (UniProt O94782); assay: co-IP; HEK-293T cells transfected with the indicated plasmids; lysed in IP lysis buffer; USP1 precipitated (anti-HA magnetic beads) at 4 °C overnight; Western blot
T1 sequence: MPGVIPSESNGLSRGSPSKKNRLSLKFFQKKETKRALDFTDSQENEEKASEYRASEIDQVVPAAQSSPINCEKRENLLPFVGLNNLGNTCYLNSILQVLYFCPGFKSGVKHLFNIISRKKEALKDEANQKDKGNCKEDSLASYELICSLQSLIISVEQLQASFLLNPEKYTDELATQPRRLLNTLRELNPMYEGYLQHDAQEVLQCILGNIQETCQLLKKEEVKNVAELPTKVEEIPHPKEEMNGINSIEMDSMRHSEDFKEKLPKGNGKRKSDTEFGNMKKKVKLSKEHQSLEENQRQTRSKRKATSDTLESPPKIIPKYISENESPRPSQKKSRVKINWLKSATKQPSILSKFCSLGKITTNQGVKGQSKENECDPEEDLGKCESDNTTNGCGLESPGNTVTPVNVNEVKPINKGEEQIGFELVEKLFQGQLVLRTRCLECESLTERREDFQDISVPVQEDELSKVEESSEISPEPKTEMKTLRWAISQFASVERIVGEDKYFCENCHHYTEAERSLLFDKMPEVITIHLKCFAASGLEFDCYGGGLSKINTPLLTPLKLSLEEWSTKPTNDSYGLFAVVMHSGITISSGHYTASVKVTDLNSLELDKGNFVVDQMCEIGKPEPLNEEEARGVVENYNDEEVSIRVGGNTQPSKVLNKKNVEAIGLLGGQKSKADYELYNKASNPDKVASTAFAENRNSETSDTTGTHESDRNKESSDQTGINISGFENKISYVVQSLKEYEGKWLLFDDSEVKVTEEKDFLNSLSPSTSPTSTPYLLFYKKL

USP1 in PANC-1 cells = biological target: T2, USP1 in PANC-1 cells (UniProt O94782); assay: co-IP; PANC-1 cells; lysed in IP lysis buffer; anti-HA/Myc magnetic beads at 4 °C overnight; Western blot; bait not given
T2 sequence: T1 sequence

Row | Substance | binding [1] | binding (USP1 in PANC-1 cells)
1 | Myc-ATG14 (autophagy-related gene 14) (from UniProt Q6ZNE5 1-492) | binds | –
2 | ATG14 in PANC-1 cells (from UniProt Q6ZNE5 1-492) | – | binds
